Measured values as given in the supplement of paper PMC10849652.
Some of the results follow.

Amino acid sequences for entries named in this document (tags omitted). A change or cut given only in a name is not applied to a line headed by its entry.
UniProt Q99471, whole entry, looked up: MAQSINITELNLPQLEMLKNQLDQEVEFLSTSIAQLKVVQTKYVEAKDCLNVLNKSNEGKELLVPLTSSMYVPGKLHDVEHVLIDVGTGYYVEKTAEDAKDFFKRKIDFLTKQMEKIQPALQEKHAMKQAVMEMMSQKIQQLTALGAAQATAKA
UniProt Q9HBI1: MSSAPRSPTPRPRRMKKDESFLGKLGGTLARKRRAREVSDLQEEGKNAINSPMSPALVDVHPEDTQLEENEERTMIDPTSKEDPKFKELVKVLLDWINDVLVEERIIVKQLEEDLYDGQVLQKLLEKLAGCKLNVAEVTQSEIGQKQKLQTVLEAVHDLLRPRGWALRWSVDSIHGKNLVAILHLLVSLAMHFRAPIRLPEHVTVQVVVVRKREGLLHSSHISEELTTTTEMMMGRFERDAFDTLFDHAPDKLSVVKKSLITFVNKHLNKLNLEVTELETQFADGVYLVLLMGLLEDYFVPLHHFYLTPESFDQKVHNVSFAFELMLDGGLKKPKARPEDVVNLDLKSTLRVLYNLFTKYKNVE
UniProt Q86U86, whole entry, looked up: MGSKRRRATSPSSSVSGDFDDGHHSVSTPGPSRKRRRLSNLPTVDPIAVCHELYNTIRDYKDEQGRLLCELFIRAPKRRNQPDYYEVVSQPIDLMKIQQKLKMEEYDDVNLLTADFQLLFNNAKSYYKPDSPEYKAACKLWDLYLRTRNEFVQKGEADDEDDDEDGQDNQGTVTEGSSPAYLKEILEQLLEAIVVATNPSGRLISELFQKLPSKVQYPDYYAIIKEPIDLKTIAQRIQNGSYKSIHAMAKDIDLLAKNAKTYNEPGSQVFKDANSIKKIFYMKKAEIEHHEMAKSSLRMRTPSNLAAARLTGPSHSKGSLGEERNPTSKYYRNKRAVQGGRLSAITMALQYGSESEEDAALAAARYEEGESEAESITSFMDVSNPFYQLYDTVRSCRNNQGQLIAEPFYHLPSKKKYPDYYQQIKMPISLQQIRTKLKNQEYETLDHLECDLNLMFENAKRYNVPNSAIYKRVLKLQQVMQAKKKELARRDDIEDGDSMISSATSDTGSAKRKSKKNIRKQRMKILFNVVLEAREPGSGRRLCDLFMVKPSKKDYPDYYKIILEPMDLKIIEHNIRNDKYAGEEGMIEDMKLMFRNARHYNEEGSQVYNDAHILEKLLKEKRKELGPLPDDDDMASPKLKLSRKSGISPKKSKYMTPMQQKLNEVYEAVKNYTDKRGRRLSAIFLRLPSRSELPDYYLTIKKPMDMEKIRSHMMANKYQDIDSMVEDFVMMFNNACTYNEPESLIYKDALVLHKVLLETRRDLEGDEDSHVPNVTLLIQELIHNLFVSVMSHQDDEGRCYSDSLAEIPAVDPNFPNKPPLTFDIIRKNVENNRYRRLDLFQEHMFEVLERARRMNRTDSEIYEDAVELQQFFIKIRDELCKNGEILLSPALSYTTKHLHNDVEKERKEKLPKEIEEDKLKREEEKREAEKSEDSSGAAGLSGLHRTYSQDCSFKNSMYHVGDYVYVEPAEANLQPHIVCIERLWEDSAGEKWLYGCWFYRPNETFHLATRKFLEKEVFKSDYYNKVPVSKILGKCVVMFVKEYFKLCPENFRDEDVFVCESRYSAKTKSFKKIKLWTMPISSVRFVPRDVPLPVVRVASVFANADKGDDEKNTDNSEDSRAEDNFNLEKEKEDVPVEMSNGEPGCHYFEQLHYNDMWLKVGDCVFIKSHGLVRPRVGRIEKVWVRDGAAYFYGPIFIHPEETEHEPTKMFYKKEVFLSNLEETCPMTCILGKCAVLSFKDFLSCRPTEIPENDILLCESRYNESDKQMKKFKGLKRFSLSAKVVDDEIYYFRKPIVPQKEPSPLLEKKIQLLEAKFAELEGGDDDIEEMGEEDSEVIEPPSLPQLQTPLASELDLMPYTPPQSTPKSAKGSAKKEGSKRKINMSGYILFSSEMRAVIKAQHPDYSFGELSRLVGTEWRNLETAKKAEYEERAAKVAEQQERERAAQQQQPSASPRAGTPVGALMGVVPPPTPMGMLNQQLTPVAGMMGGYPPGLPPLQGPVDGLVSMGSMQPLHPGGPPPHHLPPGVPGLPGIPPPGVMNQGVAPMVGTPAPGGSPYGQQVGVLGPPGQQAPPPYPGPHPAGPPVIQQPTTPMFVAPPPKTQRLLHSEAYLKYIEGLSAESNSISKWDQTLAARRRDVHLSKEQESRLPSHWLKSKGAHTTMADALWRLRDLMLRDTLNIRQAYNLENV
UniProt O15067: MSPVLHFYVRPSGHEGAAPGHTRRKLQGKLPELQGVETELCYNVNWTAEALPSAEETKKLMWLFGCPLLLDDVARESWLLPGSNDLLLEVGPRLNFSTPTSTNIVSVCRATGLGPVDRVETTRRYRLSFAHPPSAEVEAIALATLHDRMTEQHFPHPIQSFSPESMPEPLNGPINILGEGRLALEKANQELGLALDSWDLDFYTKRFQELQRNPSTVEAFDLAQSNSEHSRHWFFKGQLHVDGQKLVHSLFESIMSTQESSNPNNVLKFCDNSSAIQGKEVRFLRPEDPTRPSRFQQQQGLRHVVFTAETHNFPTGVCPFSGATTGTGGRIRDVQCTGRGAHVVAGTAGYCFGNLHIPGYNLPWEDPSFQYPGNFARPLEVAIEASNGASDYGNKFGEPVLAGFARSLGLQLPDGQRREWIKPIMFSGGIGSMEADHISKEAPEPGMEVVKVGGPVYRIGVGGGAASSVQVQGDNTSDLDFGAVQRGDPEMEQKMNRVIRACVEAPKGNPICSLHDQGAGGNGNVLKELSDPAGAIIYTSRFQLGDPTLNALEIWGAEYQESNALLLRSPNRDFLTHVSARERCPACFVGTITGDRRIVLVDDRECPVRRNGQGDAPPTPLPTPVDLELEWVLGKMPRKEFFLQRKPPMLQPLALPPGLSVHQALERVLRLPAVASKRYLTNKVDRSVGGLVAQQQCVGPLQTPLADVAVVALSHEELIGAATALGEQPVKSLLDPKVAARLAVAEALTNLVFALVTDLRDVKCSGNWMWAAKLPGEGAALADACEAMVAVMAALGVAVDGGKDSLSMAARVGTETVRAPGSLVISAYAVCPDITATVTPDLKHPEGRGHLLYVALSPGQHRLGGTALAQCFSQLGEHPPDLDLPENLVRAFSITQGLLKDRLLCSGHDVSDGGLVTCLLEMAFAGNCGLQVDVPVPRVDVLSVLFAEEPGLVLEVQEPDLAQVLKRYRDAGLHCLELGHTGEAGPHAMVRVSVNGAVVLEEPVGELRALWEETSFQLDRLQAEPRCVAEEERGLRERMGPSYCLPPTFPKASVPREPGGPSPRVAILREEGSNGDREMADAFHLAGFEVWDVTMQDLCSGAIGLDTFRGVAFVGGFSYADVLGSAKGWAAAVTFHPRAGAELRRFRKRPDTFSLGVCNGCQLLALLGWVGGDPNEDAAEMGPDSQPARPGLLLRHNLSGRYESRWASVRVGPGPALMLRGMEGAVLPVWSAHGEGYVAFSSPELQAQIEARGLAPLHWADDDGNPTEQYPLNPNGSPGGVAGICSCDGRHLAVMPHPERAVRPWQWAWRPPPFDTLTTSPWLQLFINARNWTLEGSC
UniProt Q9NQP4, whole entry, looked up: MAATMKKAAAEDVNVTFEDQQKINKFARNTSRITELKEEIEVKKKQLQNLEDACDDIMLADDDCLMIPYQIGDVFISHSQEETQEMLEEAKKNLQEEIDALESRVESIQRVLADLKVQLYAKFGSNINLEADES
UniProt Q9UKL6: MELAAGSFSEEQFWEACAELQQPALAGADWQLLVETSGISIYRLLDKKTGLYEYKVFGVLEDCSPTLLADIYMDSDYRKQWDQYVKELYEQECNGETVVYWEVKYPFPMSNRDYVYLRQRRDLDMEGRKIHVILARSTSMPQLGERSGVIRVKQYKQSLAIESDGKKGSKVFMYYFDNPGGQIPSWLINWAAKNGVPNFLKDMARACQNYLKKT
UniProt O60925, whole entry, looked up: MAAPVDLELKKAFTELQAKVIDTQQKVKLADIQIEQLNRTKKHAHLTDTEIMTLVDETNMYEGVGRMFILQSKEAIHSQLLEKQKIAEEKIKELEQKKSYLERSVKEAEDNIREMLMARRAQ
UniProt P30039: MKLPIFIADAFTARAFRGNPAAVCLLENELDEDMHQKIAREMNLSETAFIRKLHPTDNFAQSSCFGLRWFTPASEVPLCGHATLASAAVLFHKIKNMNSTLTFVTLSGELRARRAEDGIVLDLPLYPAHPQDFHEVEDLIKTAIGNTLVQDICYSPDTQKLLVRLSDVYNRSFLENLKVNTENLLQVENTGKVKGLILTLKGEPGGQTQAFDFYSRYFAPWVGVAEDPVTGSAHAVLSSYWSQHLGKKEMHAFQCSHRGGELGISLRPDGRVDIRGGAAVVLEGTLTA
UniProt P40855: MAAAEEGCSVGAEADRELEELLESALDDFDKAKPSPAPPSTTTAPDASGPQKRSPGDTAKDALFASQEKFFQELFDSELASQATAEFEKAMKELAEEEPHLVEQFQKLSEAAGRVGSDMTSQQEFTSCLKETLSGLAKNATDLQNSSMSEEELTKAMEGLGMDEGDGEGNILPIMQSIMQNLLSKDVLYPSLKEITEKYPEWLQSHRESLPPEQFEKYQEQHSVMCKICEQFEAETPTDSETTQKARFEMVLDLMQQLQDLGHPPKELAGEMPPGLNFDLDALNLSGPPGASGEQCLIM
UniProt Q9BRX2, whole entry, looked up: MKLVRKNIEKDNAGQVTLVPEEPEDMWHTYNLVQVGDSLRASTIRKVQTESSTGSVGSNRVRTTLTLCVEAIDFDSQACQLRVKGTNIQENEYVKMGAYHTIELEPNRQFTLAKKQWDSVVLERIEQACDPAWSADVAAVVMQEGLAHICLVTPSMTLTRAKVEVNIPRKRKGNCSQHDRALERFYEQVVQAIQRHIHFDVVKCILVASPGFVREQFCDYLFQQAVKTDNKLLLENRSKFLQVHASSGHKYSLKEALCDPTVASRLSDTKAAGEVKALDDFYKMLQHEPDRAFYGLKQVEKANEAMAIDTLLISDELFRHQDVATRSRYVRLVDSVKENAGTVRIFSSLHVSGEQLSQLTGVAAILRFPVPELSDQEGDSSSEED
UniProt Q9UGN5: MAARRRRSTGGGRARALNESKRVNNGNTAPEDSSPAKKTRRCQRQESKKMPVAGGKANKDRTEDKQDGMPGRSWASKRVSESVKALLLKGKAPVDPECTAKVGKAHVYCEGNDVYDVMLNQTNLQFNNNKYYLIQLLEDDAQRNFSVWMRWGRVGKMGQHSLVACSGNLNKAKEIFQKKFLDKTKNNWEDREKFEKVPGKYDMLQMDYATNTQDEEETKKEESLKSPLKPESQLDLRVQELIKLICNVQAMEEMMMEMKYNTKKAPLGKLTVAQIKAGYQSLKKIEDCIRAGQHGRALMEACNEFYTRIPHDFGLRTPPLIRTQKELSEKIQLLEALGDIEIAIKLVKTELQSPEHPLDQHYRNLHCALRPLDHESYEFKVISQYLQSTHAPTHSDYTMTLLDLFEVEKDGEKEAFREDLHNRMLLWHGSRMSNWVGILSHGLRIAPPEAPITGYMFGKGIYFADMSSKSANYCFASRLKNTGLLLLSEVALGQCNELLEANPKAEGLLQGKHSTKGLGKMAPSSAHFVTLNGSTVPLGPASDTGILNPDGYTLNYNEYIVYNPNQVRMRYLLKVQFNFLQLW
UniProt Q15366, whole entry, looked up: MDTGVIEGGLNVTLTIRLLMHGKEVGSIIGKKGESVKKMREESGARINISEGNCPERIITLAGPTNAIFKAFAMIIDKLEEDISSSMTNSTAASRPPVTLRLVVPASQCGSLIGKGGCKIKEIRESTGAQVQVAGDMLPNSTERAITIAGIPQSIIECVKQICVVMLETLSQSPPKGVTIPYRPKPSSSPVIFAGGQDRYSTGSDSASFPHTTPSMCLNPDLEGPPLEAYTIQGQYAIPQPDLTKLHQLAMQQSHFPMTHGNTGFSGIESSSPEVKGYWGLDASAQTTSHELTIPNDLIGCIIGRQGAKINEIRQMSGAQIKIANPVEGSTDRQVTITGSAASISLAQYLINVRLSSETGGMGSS
UniProt O14737: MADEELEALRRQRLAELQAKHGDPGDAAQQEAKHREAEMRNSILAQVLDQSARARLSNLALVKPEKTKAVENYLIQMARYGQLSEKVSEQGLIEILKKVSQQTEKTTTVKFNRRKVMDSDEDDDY
UniProt P0DJ07: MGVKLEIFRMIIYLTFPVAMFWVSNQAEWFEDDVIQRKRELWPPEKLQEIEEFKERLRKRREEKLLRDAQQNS
UniProt Q9HBH1: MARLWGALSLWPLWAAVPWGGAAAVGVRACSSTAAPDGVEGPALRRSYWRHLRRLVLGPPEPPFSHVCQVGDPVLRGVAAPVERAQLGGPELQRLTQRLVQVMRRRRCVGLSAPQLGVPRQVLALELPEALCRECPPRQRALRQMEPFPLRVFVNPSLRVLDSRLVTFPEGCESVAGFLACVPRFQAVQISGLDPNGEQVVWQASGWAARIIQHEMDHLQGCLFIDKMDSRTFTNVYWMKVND
UniProt Q9BUL8: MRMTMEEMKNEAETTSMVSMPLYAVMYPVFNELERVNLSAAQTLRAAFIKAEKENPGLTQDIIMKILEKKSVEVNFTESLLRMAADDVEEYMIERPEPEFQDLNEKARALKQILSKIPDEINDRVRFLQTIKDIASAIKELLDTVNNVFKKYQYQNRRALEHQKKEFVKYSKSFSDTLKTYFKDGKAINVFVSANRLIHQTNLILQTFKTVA

Tests used:
Experiment in all cases: log2 fold change, soluble protein after heating vs DMSO (PISA); higher = thermal stabilisation; K562 lysate, 10 uM; active = over 0.2 and 3.5 SD of the protein, either way, in both replicates (recomputed)
ibrutinib = compound: C=CC(=O)N1CCC[C@@H](n2nc(-c3ccc(Oc4ccccc4)cc3)c3c(N)ncnc32)C1 [ibrutinib]
Summary of the method: (§1)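 Pellets of K562 cells were dounce-homogenised in PBS pH 7.4 with 1 mM MgCl2, and the crude extract was held at 1 mg/mL protein for a 30 min treatment with 10 μM compound. Aliquots were heated for 3 min over 48°C-58°C and pooled before NP-40 was added to 0.5% at 4°C. The supernatant from 21,000xg for 90 min was quantified by TMTpro 16plex LC-MS/MS with channel sums equalised. Values are reported from duplicates as log-two fold change in thermal stability relative to solvent controls.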

[1] = compound: CC(=O)c1cnc2ccc(-c3cc(Cl)c(O)c(Cl)c3)nc2c1N[C@H]1CC[C@H](CN(C)C)CC1
Summary of the method: as §1

ralimetinib = compound: CC(C)(C)Cn1c(N)nc2ccc(-c3[nH]c(C(C)(C)C)nc3-c3ccc(F)cc3)nc21 [ralimetinib]
Summary of the method: as §1

[2] = compound: CC(C)(O)CC(=O)NCCn1ccc2ncnc(Nc3ccc(Oc4cccc(C(F)(F)F)c4)c(Cl)c3)c21
Summary of the method: as §1

[3] = compound: CC(C)C1=C2N=C(C=C(N2N=C1)NCC3=CC=CC=C3)NCCCCCCN
Summary of the method: as §1

[4] = compound: CC1=C(C(CC(=O)N1)C2=CC=C(C=C2)C(F)(F)F)C(=O)NC3=C(C=C4C(=C3)C=NN4)F
Summary of the method: as §1

[5] = compound: CC1=C(C2=C(C=C1)C(=O)C3=CC=CC=C3N2CCCN)C
Summary of the method: as §1

[6] = compound: CC1=C(C=C(C=C1)NC(=O)C2=CC(=CC=C2)C(C)(C)C#N)NC3=CC4=C(C=C3)N=CN(C4=O)C
Summary of the method: as §1

[7] = compound: CC1=C(C=C(C=C1)NC(=O)C2=CC(=CC=C2)N(C)C)NC(=O)C3=CC=C(C=C3)O
Summary of the method: as §1

[8] = compound: CC1=CC=C(C=C1)SC2=C3C=C(SC3=CN=C2)C(=O)N
Summary of the method: as §1

Measured: log2 fold change

PFDN5 (UniProt Q99471)
inactive: ibrutinib 0.137 | [1] -0.064 | ralimetinib -0.007 | [2] -0.006 | [3] -0.026 | [4] -0.056 | [5] -0.023 | [6] 0.116 | [7] 0.019 | [8] 0.05

PARVB (UniProt Q9HBI1)
inactive: ibrutinib 0.01 | [1] 0 | ralimetinib -0.002 | [2] -0.008 | [3] -0.022 | [4] 0.039 | [5] -0.015 | [6] -0.026 | [7] 0.016 | [8] -0.026

PBRM1 (UniProt Q86U86)
inactive: ibrutinib 0.003 | [1] -0.004 | ralimetinib 0.001 | [2] 0.031 | [3] 0.033 | [4] -0.047 | [5] 0.027 | [6] 0.063 | [7] 0.072 | [8] -0.033

PFN1 (UniProt P07737)
inactive: ibrutinib -0.018 | [1] -0.007 | ralimetinib 0.009 | [2] 0.013 | [3] -0.022 | [4] -0.017 | [5] 0.009 | [6] 0.007 | [7] 0 | [8] 0.002

PFAS (UniProt O15067)
inactive: ibrutinib -0.007 | [1] -0.016 | ralimetinib 0.03 | [2] 0.006 | [3] 0.003 | [4] -0.015 | [5] -0.003 | [6] -0.041 | [7] 0.032 | [8] 0.002

PC (UniProt P11498)
inactive: ibrutinib 0.006 | [1] 0.013 | ralimetinib 0.016 | [2] 0.001 | [3] 0 | [4] -0.022 | [5] -0.016 | [6] -0.035 | [7] 0.024 | [8] 0.027

PFDN4 (UniProt Q9NQP4)
inactive: ibrutinib 0.091 | [1] 0.024 | ralimetinib -0.083 | [2] -0.037 | [3] 0.019 | [4] -0.015 | [5] 0.086 | [6] -0.045 | [7] 0.015 | [8] 0.015

PCTP (UniProt Q9UKL6)
inactive: ibrutinib 0.009 | [1] -0.009 | ralimetinib -0.014 | [2] -0.087 | [3] -0.04 | [4] 0.001 | [5] 0.048 | [6] 0.023 | [7] 0.021 | [8] -0.038

PFDN1 (UniProt O60925)
inactive: ibrutinib 0.063 | [1] -0.081 | ralimetinib -0.038 | [2] 0.031 | [3] -0.025 | [4] -0.075 | [5] 0.007 | [6] 0.051 | [7] -0.022 | [8] 0.073

PARP1 (UniProt P09874)
inactive: ibrutinib 0.005 | [1] -0.005 | ralimetinib -0.028 | [2] 0.014 | [3] 0.019 | [4] -0.004 | [5] 0 | [6] -0.018 | [7] 0.02 | [8] 0.014

PBLD (UniProt P30039)
inactive: ibrutinib 0.085 | [1] 0.021 | ralimetinib -0.082 | [2] -0.093 | [3] -0.009 | [4] -0.038 | [5] 0.034 | [6] 0.07 | [7] -0.116 | [8] -0.007

PEX19 (UniProt P40855)
inactive: ibrutinib 0.182 | [1] -0.013 | ralimetinib -0.02 | [2] -0.037 | [3] 0.002 | [4] -0.033 | [5] -0.003 | [6] 0.052 | [7] -0.008 | [8] -0.022

PES1 (UniProt O00541)
inactive: ibrutinib 0.016 | [1] 0.017 | ralimetinib 0.031 | [2] -0.03 | [3] 0.006 | [4] 0.013 | [5] -0.052 | [6] 0.012 | [7] 0.003 | [8] 0.007

PASK (UniProt Q96RG2)
inactive: ibrutinib 0.007 | [1] 0.154 | ralimetinib 0.004 | [2] -0.008 | [3] -0.002 | [4] 0.012 | [5] 0.035 | [6] -0.014 | [7] 0.013 | [8] 0.043

PEX14 (UniProt O75381)
inactive: ibrutinib 0.022 | [1] 0.007 | ralimetinib -0.014 | [2] -0.03 | [3] -0.038 | [4] 0.039 | [5] 0.015 | [6] 0.02 | [7] -0.036 | [8] 0

PELO (UniProt Q9BRX2)
inactive: ibrutinib 0.034 | [1] -0.004 | ralimetinib 0.04 | [2] -0.035 | [3] 0.005 | [4] -0.02 | [5] -0.012 | [6] -0.005 | [7] 0.001 | [8] 0.002

PARP2 (UniProt Q9UGN5)
inactive: ibrutinib 0.033 | [1] 0.082 | ralimetinib -0.01 | [2] -0.029 | [3] 0.069 | [4] -0.027 | [5] 0.108 | [6] -0.028 | [7] -0.003 | [8] -0.012

PCBP2 isoform 3 (UniProt Q15366)
inactive: ibrutinib -0.007 | [1] 0.025 | ralimetinib 0.021 | [2] 0.022 | [3] -0.019 | [4] -0.034 | [5] 0.06 | [6] -0.017 | [7] -0.016 | [8] -0.017

PDCD5 (UniProt O14737)
inactive: ibrutinib 0.069 | [1] 0.021 | ralimetinib -0.035 | [2] -0.003 | [3] -0.014 | [4] -0.032 | [5] 0.038 | [6] -0.032 | [7] -0.03 | [8] -0.002

PARN (UniProt O95453)
inactive: ibrutinib -0.014 | [1] 0.013 | ralimetinib -0.007 | [2] -0.042 | [3] -0.03 | [4] 0.019 | [5] -0.004 | [6] 0.013 | [7] 0.028 | [8] -0.004

PDRG1 (UniProt Q9NUG6)
inactive: ibrutinib 0.038 | [1] -0.001 | ralimetinib -0.012 | [2] -0.032 | [3] 0.048 | [4] 0.036 | [5] -0.021 | [6] 0.052 | [7] -0.004 | [8] -0.024

PBK (UniProt Q96KB5)
inactive: ibrutinib 0.006 | [1] -0.007 | ralimetinib 0.005 | [2] -0.005 | [3] 0.029 | [4] -0.008 | [5] 0.015 | [6] 0.006 | [7] -0.013 | [8] 0.019

PDLIM4 (UniProt P50479)
inactive: ibrutinib 0.014 | [1] 0.003 | ralimetinib -0.009 | [2] -0.027 | [3] -0.006 | [4] -0.025 | [5] -0.003 | [6] 0.008 | [7] 0.001 | [8] -0.039

PCYOX1L (UniProt Q8NBM8)
inactive: ibrutinib 0.018 | [1] -0.013 | ralimetinib -0.016 | [2] -0.025 | [3] -0.055 | [4] 0.011 | [5] 0.212 | [6] 0.011 | [7] 0.03 | [8] -0.053

PEPD (UniProt P12955)
inactive: ibrutinib 0.03 | [1] -0.035 | ralimetinib -0.009 | [2] -0.061 | [3] -0.008 | [4] 0.024 | [5] 0.02 | [6] 0.013 | [7] -0.003 | [8] -0.005

Quoted from the entries so far (two entries):
PDCD5 (UniProt O14737)
inactive: ibrutinib 0.069 | [1] 0.021 | ralimetinib -0.035 | [2] -0.003 | [3] -0.014 | [4] -0.032 | [5] 0.038 | [6] -0.032 | [7] -0.03 | [8] -0.002

PARN (UniProt O95453)
inactive: ibrutinib -0.014 | [1] 0.013 | ralimetinib -0.007 | [2] -0.042 | [3] -0.03 | [4] 0.019 | [5] -0.004 | [6] 0.013 | [7] 0.028 | [8] -0.004

(further entries)

PCYOX1 (UniProt Q9UHG3)
inactive: ibrutinib 0.029 | [1] 0.001 | ralimetinib 0.013 | [2] 0.02 | [3] -0.009 | [4] 0.053 | [5] 0.026 | [6] 0.01 | [7] 0 | [8] -0.004

PET100 (UniProt P0DJ07)
inactive: ibrutinib 0.022 | [1] -0.03 | ralimetinib 0.031 | [2] 0.041 | [3] -0.037 | [4] 0.023 | [5] -0.004 | [6] -0.1 | [7] 0 | [8] -0.051

PDF (UniProt Q9HBH1)
inactive: ibrutinib 0.054 | [1] 0.016 | ralimetinib -0.014 | [2] 0.066 | [3] 0.001 | [4] 0.01 | [5] 0.07 | [6] 0.048 | [7] -0.018 | [8] 0.059

PDCD10 (UniProt Q9BUL8)
inactive: ibrutinib 0.001 | [1] 0.062 | ralimetinib 0 | [2] -0.006 | [3] -0.008 | [4] -0.02 | [5] 0.016 | [6] 0.021 | [7] -0.02 | [8] -0.02

PER3 isoform 2 (UniProt P56645)
inactive: ibrutinib 0.041 | [1] 0.007 | ralimetinib -0.012 | [2] -0.021 | [3] 0.01 | [4] 0.016 | [5] 0.031 | [6] -0.002 | [7] 0.019 | [8] -0.017
